Literature values in patent US6875420B1, “Method of ultrasound imaging” (Amersham Health AS, priority 1991, dated 2005).
Some of these results come from one statement about several compounds together. At least one structure is not confirmed: it was looked up by name or label, or the drawing left a doubt.

Conditions: microbubbles less than about 8 microns in diameter; cited from earlier work

## O=C=O [Carbon Dioxide]
  life span of microbubbles: < 0.25 s
